Laboratory results as given in patent CN110903391A.
No constants are given. Whether binding was seen depends on the method and setting. Some entries that bind do so weakly or less than the wild type.

The chains behind the UniProt entries cited, without tags or fusion partners. Where a name states a change or a piece, a line headed by the entry shows the natural chain unless it says otherwise. Residues count along the entry.
UniProt Q9NZQ7: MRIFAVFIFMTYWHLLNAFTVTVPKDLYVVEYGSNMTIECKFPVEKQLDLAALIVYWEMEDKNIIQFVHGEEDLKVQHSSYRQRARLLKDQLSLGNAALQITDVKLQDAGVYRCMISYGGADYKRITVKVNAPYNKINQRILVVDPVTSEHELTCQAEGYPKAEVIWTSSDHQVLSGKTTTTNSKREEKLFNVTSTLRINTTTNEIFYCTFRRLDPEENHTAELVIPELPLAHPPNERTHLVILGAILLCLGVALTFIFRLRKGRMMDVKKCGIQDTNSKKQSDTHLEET
PD-L1 on 293T-PD-L1细胞: residues 19-290 of Q9NZQ7

Columns and labels:
[1] = molecular target: PD-L1 on 293T-PD-L1细胞 (human) (UniProt Q9NZQ7); experiment: summary of FACS (tables 7-8)
PD-L1-ECD-hFc (human) [2] = molecular target: PD-L1-ECD-hFc (human) (UniProt Q9NZQ7); experiment: summary of ELISA (tables 5-6)
PD-L1-ECD-hFc (human) [3] = molecular target: PD-L1-ECD-hFc (human) (UniProt Q9NZQ7); experiment: ELISA, PD-L1-ECD-hFc coated
[4] = molecular target: PD-L1 on 293T-PD-L1细胞 (human) (UniProt Q9NZQ7); experiment: FACS on 293T-PD-L1 cells

binding [1]: binds
binding (PD-L1-ECD-hFc (human) [2]): binds
binding (PD-L1-ECD-hFc (human) [3]): binds
binding [4]: binds
B1: 10E9C7G2人源化完整抗体 (antibody, human IgG1, kappa, V domains shown)
VH: QVQLQQSGPGLVKPSQTLSLTCAISGDSITSGYWNWIRQSPSRGLEYMGYISYTGSTYYNLSLKSRITINRDTSKNQYSLQLNSVTPEDTAVYYCARGDYGSDWPPWFAYWGQGTTVTVSS
VL: DIQMTQSPSSLSASVGDRVTITCSASSSISSNSLQWYQQKPGKAPKLLIYRTTNLPSGVPSRFSGSGSGTDYTLTISSLQPEDFATYYCQQSSGLPLTFGQGTKLEIKR
